Data as given in PubChem BioAssay AID504804 (Drosophila RNAi Screening Center, 2011).
In all, the deposit lists about 19,000 reagents; this is an unselected part of those that have a named target and a result. Over the whole deposit, 47 (0.25%) got an active call. 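Signals are raw, not normalised; exact z-scores behind calls not deposited; actives needed confirmation, so some wells reaching 2 SD are inactive.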 Unmarked entries are inactive. A plus sign joins genes that one reagent is predicted to hit. Reagent sequences are not shown.

Test: 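Knock-downs shielding fly cells from apoptosis caused by DNA damage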 (primary screen)
Cells: Drosophila Kc cells
Knock-down reagent: long dsRNA against Drosophila genes, 0.5 µg dsRNA per well
Time to read-out: 96 h (48 h knock-down, then 48 h drug)
Treatment: doxorubicin 5 µg/ml for 48 h, added 48 h after dsRNA
Read-out: 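Viability measured as cellular ATP by luminescence after 48 h knock-down then 48 h doxorubicin at 5 µg/ml; unnormalised plate counts for each replicate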
Reading the numbers: raw ATP luminescence: higher = more viable cells, protection from doxorubicin
Active means: 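z-score of 2 or more over plate mean in both duplicates, retained only when retests and separate dsRNAs confirm the protection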

Depletion of Ir7e (Ionotropic receptor 7e) [DRSC18011] resulted in: raw ATP luminescence, replicate 1 = 1.87e5; raw ATP luminescence, replicate 2 = 2.35e5. CG7945 + yellow-k [DRSC10851] showed raw ATP luminescence, replicate 1 = 37933; raw ATP luminescence, replicate 2 = 37587. After knock-down of CG13794 [DRSC02298] the results were raw ATP luminescence, replicate 1 = 58083; raw ATP luminescence, replicate 2 = 72357. Lmpt (Limpet) [DRSC09450] showed raw ATP luminescence, replicate 1 = 75120; raw ATP luminescence, replicate 2 = 76160. After knock-down of Lmpt (Limpet) [DRSC09864], the record shows raw ATP luminescence, replicate 1 = 43700; raw ATP luminescence, replicate 2 = 42243. With knock-down of Lmpt (Limpet) [DRSC09865], the screen gave raw ATP luminescence, replicate 1 = 24603; raw ATP luminescence, replicate 2 = 27363.

Against Lmpt (Limpet) [DRSC09866], the values are raw ATP luminescence, replicate 1 = 37447; raw ATP luminescence, replicate 2 = 37963. Against Lmpt (Limpet) [DRSC11107], the values are raw ATP luminescence, replicate 1 = 40393; raw ATP luminescence, replicate 2 = 40053. For NimC2 (Nimrod C2) [DRSC01881], the values are raw ATP luminescence, replicate 1 = 74277; raw ATP luminescence, replicate 2 = 70510. Against CG32425 [DRSC11739] the deposit lists raw ATP luminescence, replicate 1 = 40250; raw ATP luminescence, replicate 2 = 35887. Silencing of CG32425 [DRSC11764] came out at: raw ATP luminescence, replicate 1 = 41137; raw ATP luminescence, replicate 2 = 37487. PGRP-SC1a (Peptidoglycan recognition protein SC1a) [DRSC06482] scored raw ATP luminescence, replicate 1 = 42480; raw ATP luminescence, replicate 2 = 77763.

EAChm (Enhancer of Acetyltransferase Chameau) [DRSC10010] gave raw ATP luminescence, replicate 1 = 80463; raw ATP luminescence, replicate 2 = 67413. With knock-down of dom (domino) [DRSC04558], the record shows raw ATP luminescence, replicate 1 = 78557; raw ATP luminescence, replicate 2 = 73177. Silencing of dom (domino) [DRSC04559] resulted in: raw ATP luminescence, replicate 1 = 42167; raw ATP luminescence, replicate 2 = 38173. For GstT3 (Glutathione S transferase T3) [DRSC20541] the deposit lists raw ATP luminescence, replicate 1 = 3.38e5; raw ATP luminescence, replicate 2 = 3.16e5. After knock-down of PKD (Protein Kinase D) [DRSC16200] the results were raw ATP luminescence, replicate 1 = 74080; raw ATP luminescence, replicate 2 = 78420. With knock-down of CG12581 [DRSC12206], the record shows raw ATP luminescence, replicate 1 = 25210; raw ATP luminescence, replicate 2 = 25220.

With knock-down of CG12581 [DRSC12207] the results were raw ATP luminescence, replicate 1 = 54577; raw ATP luminescence, replicate 2 = 98513. Against CG4367 [DRSC15568], the entry reads raw ATP luminescence, replicate 1 = 42420; raw ATP luminescence, replicate 2 = 40010. For prg (piragua) [DRSC03324], the entry reads raw ATP luminescence, replicate 1 = 50353; raw ATP luminescence, replicate 2 = 76350. bap (bagpipe) [DRSC16908] scored raw ATP luminescence, replicate 1 = 1.81e5; raw ATP luminescence, replicate 2 = 2.00e5. With knock-down of RpS27 (Ribosomal protein S27) [DRSC14244], the record shows raw ATP luminescence, replicate 1 = 37900; raw ATP luminescence, replicate 2 = 35050.

4 entries already listed, arranged by “raw ATP luminescence, replicate 1”, lowest first.
RpS27 (Ribosomal protein S27) [DRSC14244] | raw ATP luminescence, replicate 1 = 37900; raw ATP luminescence, replicate 2 = 35050
CG4367 [DRSC15568] | raw ATP luminescence, replicate 1 = 42420; raw ATP luminescence, replicate 2 = 40010
prg (piragua) [DRSC03324] | raw ATP luminescence, replicate 1 = 50353; raw ATP luminescence, replicate 2 = 76350
bap (bagpipe) [DRSC16908] | raw ATP luminescence, replicate 1 = 1.81e5; raw ATP luminescence, replicate 2 = 2.00e5

Next entries follow.
Depletion of CG32532 [DRSC19556] came out at: raw ATP luminescence, replicate 1 = 3.42e5; raw ATP luminescence, replicate 2 = 3.03e5. CG32532 [DRSC19557] showed raw ATP luminescence, replicate 1 = 3.21e5; raw ATP luminescence, replicate 2 = 3.42e5. After knock-down of CG32532 [DRSC19558], the screen gave raw ATP luminescence, replicate 1 = 3.87e5; raw ATP luminescence, replicate 2 = 3.83e5. For Arts + Apl [DRSC10349], the entry reads raw ATP luminescence, replicate 1 = 50737; raw ATP luminescence, replicate 2 = 40180. After knock-down of Skp2 + CG1103 [DRSC12160] the results were raw ATP luminescence, replicate 1 = 20623; raw ATP luminescence, replicate 2 = 20860. Sas-4 (Spindle assembly abnormal 4) [DRSC12505] scored raw ATP luminescence, replicate 1 = 76597; raw ATP luminescence, replicate 2 = 69037.

d-cup (davis-cup) [DRSC14846] gave raw ATP luminescence, replicate 1 = 47037; raw ATP luminescence, replicate 2 = 45773. Against CG10332 (retired record) + IM18 [DRSC04064], the values are raw ATP luminescence, replicate 1 = 61447; raw ATP luminescence, replicate 2 = 52343. With knock-down of CG18814 [DRSC10347] the results were raw ATP luminescence, replicate 1 = 41027; raw ATP luminescence, replicate 2 = 40353. TfIIA-S (Transcription-factor-IIA-S) [DRSC16883] gave raw ATP luminescence, replicate 1 = 79030; raw ATP luminescence, replicate 2 = 58480. Against gas (gasoline) [DRSC04521], the entry reads raw ATP luminescence, replicate 1 = 57333; raw ATP luminescence, replicate 2 = 61517. For meep [DRSC07948], the entry reads raw ATP luminescence, replicate 1 = 1.65e5; raw ATP luminescence, replicate 2 = 1.51e5.

After knock-down of CG11404 [DRSC11656] the results were raw ATP luminescence, replicate 1 = 50867; raw ATP luminescence, replicate 2 = 60030.
